According to doi:10.1101/2022.05.17.492278:
Results are given in words; binding and its absence hold for the method and conditions named. In cells and extracts the contact can be indirect. Some entries that bind do so weakly or less than the wild type.

Chains of the proteins cited; added tags and fusions are not shown. Lines headed by an entry give the natural chain unless they say otherwise; changes in a name come on top. Residues count along the entry.
UniProt Q9BWN1, 1-212: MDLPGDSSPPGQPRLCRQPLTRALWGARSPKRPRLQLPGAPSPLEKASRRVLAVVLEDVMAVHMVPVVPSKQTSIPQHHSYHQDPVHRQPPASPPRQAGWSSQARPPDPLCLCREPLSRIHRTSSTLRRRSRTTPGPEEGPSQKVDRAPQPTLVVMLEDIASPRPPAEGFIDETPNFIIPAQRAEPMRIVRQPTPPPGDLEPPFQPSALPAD
UniProt P45973, whole entry: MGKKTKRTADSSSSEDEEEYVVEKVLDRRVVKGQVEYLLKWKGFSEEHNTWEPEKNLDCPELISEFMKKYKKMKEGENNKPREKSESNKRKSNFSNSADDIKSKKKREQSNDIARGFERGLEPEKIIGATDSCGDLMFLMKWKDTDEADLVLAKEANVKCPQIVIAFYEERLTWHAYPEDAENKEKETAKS
UniProt P83916, whole entry: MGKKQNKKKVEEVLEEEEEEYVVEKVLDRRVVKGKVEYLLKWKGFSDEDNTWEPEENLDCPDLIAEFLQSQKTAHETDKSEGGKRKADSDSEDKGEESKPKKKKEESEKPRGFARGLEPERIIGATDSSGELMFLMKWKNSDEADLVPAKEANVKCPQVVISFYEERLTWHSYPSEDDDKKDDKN
UniProt Q13185, whole entry: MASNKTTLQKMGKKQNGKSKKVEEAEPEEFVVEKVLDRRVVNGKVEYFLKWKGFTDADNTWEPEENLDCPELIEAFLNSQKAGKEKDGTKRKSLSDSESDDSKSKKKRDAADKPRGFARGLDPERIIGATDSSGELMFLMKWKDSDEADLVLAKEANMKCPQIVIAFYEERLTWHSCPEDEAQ

Experiments:
Assay in all cases: co-IP
[1] = target: GFP-tagged PRR14 1-212 fragment, wild-type (human) (UniProt Q9BWN1)
[2] = target: GFP-tagged PRR14 1-212 fragment, HP1-binding site 2 mutant (154-155EE) (human) (UniProt Q9BWN1)
[3] = target: GFP-tagged PRR14 1-212 fragment, double mutant (DM; 54-55EE and 154-155EE) (human) (UniProt Q9BWN1)
[4] = target: GFP-tagged PRR14 1-212 fragment, HP1-binding site 1 mutant (54-55EE) (human) (UniProt Q9BWN1)

| Substance | binding [1] | binding [2] | binding [3] | binding [4] |
| --- | --- | --- | --- | --- |
| heterochromatin protein 1 alpha (HP1α) (from UniProt P45973 1-191) | binds | binds | no binding |  |
| heterochromatin protein 1 beta (HP1β) (from UniProt P83916 1-185) | binds | binds | no binding |  |
| heterochromatin protein 1 gamma (HP1γ) (from UniProt Q13185 1-183) | binds | binds | no binding | binds weakly |
